# According to article PMC12391444:
# Results are given in words; binding and its absence hold for the method and conditions named. In cells and extracts the contact can be indirect. Some results given as binding are weak or reduced against the parent protein; the word gives no strength.
# Tests used:
# [1] = target: Transforming acidic coiled-coil-containing protein 3 (TACC3), endogenous (human (endogenous in PLC/PRF/5 and Huh7)) (UniProt Q9Y6A5); experiment: co-IP; co-IP with western blotting in PLC/PRF/5 and Huh7 cells, endogenous proteins
# [2] = target: HA-tagged transforming acidic coiled-coil-containing protein 3 (TACC3) (UniProt Q9Y6A5); experiment: co-IP; co-IP with western blotting in HEK-293T cells, exogenous proteins
binding [1],binding [2],Substance
binds,,"poly(A)-binding protein cytoplasmic 1 (PABPC1), endogenous (from UniProt P11940 1-636)"
,binds,"poly(A)-binding protein cytoplasmic 1 (PABPC1), exogenous in HEK293T cells (from UniProt P11940 1-636)"
